Among the data in PubChem BioAssay AID2685 (National Center for Advancing Translational Sciences (NCATS), 2010) are cell number change and AC50 values, retold here.

The experiment can be described thus: qHTS Assay for Lipid Storage Modulators in Drosophila S3 Cells.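 On cell number change: cells counted by Cell Tracker Red CMTPX staining in the red channel.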 The following applies: BODIPY lipid droplet fluorescence, 18-24 h; for cell number change: measured here: cell count max response, cells fed with added oleic acid. Summed up: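 Drosophila S3 cells loaded with oleic acid (400 uM, as added) and compounds at several concentrations; lipid droplets imaged by 488-nm laser-scanning cytometry, 500–530 nm intensity and object ratio to cell channel. Percent activity normalized to 20 uM Triacsin C.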
A general note: In qHTS, concentration-response curves come from the screen itself.

Setting [1] is: measured here: lipid fluorescence (Fed channel) AC50, cells fed with added oleic acid.
Where [2] appears, read: measured here: cell number channel AC50, cells fed with added oleic acid.

This is one part of the list. The main result of the screen is listed elsewhere. These columns were measured beside it and carry no call. Most of these compounds were active or inconclusive in the main read-out, so they are no random draw. Potencies come from curve fits of mixed quality, noted in brackets.

`COCCCNC(=O)CCCn1c(=O)[nH]c2ccccc2c1=O`: the cell number change was 5.21%. In addition, the AC50 – broadly, the concentration at which the activity in the assay is half-maximal – under setting [1] was 0.731 µM [falling, full curve, poor fit].
As for `COc1ccccc1NC(=O)COc1ccc(C(=O)NCc2ccccc2)cc1OC`, the cell number change is -32.9%. The AC50 under setting [2] was 25.9 µM [falling, single point]. In addition, the AC50 under setting [1] is 29.1 µM [falling, single point].
On to `C=CCn1c(N)c(C(=O)OCC(C)C)c2nc3ccccc3nc21`, for which the cell number change came to 6.63%. Under setting [1], the concentration at half-maximal activity (AC50) was 0.326 µM [rising, full curve, poor fit].
As for `Cn1cnnc1SC(C(=O)Nc1cccc(C(F)(F)F)c1)c1ccccc1` (stereo unspecified), the cell number change turned out to be 60.2%. Further, the AC50 under setting [2] was 0.58 µM [rising, full curve].
As to `CCCN(Cc1nnc(-c2cccs2)o1)C(=O)CN1C(=O)NC2(CCCCC2)C1=O`, the cell number change was 1.5%.
As for `CCOc1cc(C(=S)N2CCOCC2)ccc1OC(=O)c1cc(OC)c(OC)c(OC)c1`, the cell number change is -32.3%. Under setting [2], the AC50 is 16.4 µM [falling, partial curve].
Regarding `Cn1c(SCC(=O)Nc2ccc3c(c2)OCCO3)nnc1-c1ccccn1`, the cell number change came to 15.3%. In addition, the AC50 under setting [1] is 0.231 µM [rising, full curve, poor fit].
Consider `COc1ccc(-n2ncc3c(NC(C)C)ncnc32)cc1`, for which the cell number change came out at 7.54%.
As for `O=C1COc2ccc(S(=O)(=O)NCc3ccccc3)cc2N1`, the cell number change is -4.35%. Moreover, the AC50 under setting [1] was 16.4 µM [falling, partial curve, poor fit].
As to `COc1ccc(S(=O)(=O)Nc2cccc(-c3ccc(N4CCCCCC4)nn3)c2)cc1OC`, the AC50 under setting [2] was 5.17 µM [rising, single point].
Take `CC(C)NC(=O)COC(=O)/C=C/c1ccco1`: the cell number change is -10%. The AC50 under setting [2] is 0.58 µM [falling, full curve, poor fit]. Besides, under setting [1], the half-maximal activity concentration (AC50) was 29.1 µM [falling, single point].
On to `CCCS(=O)(=O)c1nc(S(=O)(=O)c2ccc(C)cc2)c(NCCN2CCOCC2)s1`, for which the cell number change was -3.45%.
As to `COc1cccc(NC(=O)C(NCC2CCCCC2)c2ccccc2)c1` (stereo unspecified), the cell number change came out at 94.5%. Besides, the AC50 under setting [2] was 23.1 µM [rising, single point]. For the same compound, under setting [1], the AC50 was 23.1 µM [rising, single point].
Consider `O=C(CSc1nnc(-c2cccs2)n1Cc1ccccc1)NCc1ccc2c(c1)OCO2`, for which the AC50 reads like this: under setting [2], 3.66 µM [rising, partial curve]; under setting [1], 16.4 µM [rising, partial curve].
Take `O=C(COc1ccccc1[N+](=O)[O-])Nc1ccc(NC(=O)c2cc3ccccc3o2)cc1`: the cell number change is -16%. For the same compound, under setting [2], the AC50 is 6.51 µM [falling, single point]. Further, the AC50 under setting [1] was 6.51 µM [falling, single point].
Take `CCOC(=O)c1cc(-c2ccc(OC)cc2OC)nn1-c1ccc(C(=O)O)cc1`: the cell number change is -22.5%. For the same compound, the AC50 under setting [1] is 6.51 µM [falling, single point].
For the compound `COC(=O)c1c(NC(=O)CCl)sc(C(=O)N2CCOCC2)c1C`, the AC50 under setting [1] is 29.1 µM [falling, single point].
Turning to `Cc1ccc(S(=O)(=O)Nn2c(O)c(C=C3N=c4ccccc4=N3)sc2=S)cc1`, the cell number change is -49.3%. For the same compound, under setting [2], the AC50 is 29.1 µM [falling, single point].
Regarding `O=[N+]([O-])c1ccc(NC2CCCC2)cc1`, the cell number change was 16.5%. For the same compound, the AC50 under setting [1] was 0.206 µM [falling, partial curve, poor fit].
Consider `Cn1c[n+](C)cc1/C=N/O`, for which the cell number change is 11.8%. Further, the half-maximal activity concentration (AC50) under setting [1] is 9.2 µM [rising, partial curve, poor fit].
With `COc1ccc(CCN2C(=NC(=O)CCC(=O)O)SC3CS(=O)(=O)CC32)cc1` (stereo unspecified), the cell number change turned out to be 8.16%. Also, the AC50 under setting [1] is 29.1 µM [rising, single point].
Regarding `COc1cccc(-c2cc3c(-n4cccc4)ncnc3o2)c1`, the cell number change was -10%. Moreover, under setting [1], the AC50 was 3.26 µM [falling, single point].
Take `O=C(Cc1ccc([N+](=O)[O-])cc1)Nc1ccc(C(=O)N2CCOCC2)cc1`: the cell number change turned out to be 37.9%. Moreover, under setting [2], the half-maximal activity concentration (AC50) was 29.1 µM [rising, partial curve]. In addition, under setting [1], the AC50 was 13 µM [rising, partial curve, poor fit].
As to `Cc1cccc(NC(=O)CCN2CCC(C(N)=O)CC2)c1`, the cell number change is 5.77%.
Turning to `Cc1ccc(C(=O)OC(C)C(=O)NC2CCCCC2)cc1S(=O)(=O)N1CCCCC1` (stereo unspecified), the cell number change is 1.27%. Also, the AC50 under setting [2] is 6.51 µM [falling, single point]. Also, under setting [1], the AC50 is 6.51 µM [falling, single point].
In the case of `COc1ccc(OCCC(=O)OCc2c(C)noc2C)cc1`, the cell number change was 5.69%. Moreover, the AC50 under setting [1] was 1.64 µM [falling, partial curve].
For the compound `O=C(Cc1coc(-c2ccc(F)cc2)n1)NCc1ccccc1`, the cell number change stood at 6.56%. Further, the AC50 under setting [1] was 6.51 µM [falling, partial curve, poor fit].
In the case of `CC(C)(C)c1ccc(OCCC(=O)OCC(=O)NC(=O)NC2CCCC2)cc1`, the cell number change is -1.5%. The half-maximal activity concentration (AC50) under setting [1] was 29.1 µM [falling, single point].
Regarding `CN1CCN(C2=CC3=CC(=C(C#N)C#N)CCC3CC2)CC1` (stereo unspecified), the cell number change was -98.1%. Further, the half-maximal activity concentration (AC50) under setting [2] is 1.84 µM [falling, partial curve]. Also, under setting [1], the AC50 is 0.651 µM [falling, full curve].
For `O=C(CCc1nc2ccccc2[nH]1)Nc1ccccc1F`, the cell number change is -34.7%. Further, the AC50 under setting [2] is 16.4 µM [falling, partial curve, poor fit]. Under setting [1], the AC50 was 18.4 µM [falling, partial curve, poor fit].
As for `CCc1ccc(NC(=O)C2CCCN(S(=O)(=O)c3ccc4[nH]c(=O)ccc4c3)C2)cc1` (stereo unspecified), the cell number change amounted to 34%. Besides, the half-maximal activity concentration (AC50) under setting [2] is 0.731 µM [falling, partial curve].
With `Cc1cccc(OC(C)C(=O)N2CCc3ccccc3C2)c1` (stereo unspecified), the cell number change was 6.04%. Also, the AC50 under setting [1] is 9.2 µM [rising, partial curve].
Turning to `O=C1NC(Cc2ccccc2)c2nc3ccc(Cl)cc3c(=O)n2-c2ccc(Cl)cc21` (stereo unspecified), the cell number change was 4.67%.
Still for that read-out and setting: as for `Cc1cccc[n+]1CC(=O)Nc1ccccc1`, the figure is 14.9%.
Consider `CCOP(=O)(OCC)C(NC(=O)Nc1ccc(Cl)c(Cl)c1)c1ccccc1` (stereo unspecified), for which the cell number change was determined as 12.5%. The half-maximal activity concentration (AC50) under setting [1] was 0.651 µM [falling, single point].
For the compound `Cc1cccc(Oc2coc3cc(O)ccc3c2=O)c1`, the concentration at half-maximal activity (AC50) under setting [1] is 6.51 µM [falling, single point].
As to `O=C(NCc1ccc(Cl)cc1)c1cc(=O)nc2sc(-c3ccccc3)nn12`, the cell number change stood at 13.6%. Besides, the AC50 under setting [1] was 0.0651 µM [rising, full curve, poor fit].
For the compound `Cc1ccccc1N1CCN(C(=S)c2ccc(-c3cccc([N+](=O)[O-])c3)o2)CC1`, the cell number change is -44.3%. In addition, under setting [2], the AC50 was 29.1 µM [falling, single point]. For the same compound, the AC50 under setting [1] is 18.4 µM [falling, partial curve].
On to `O=C(CSc1ncn[nH]1)c1ccccc1`, for which the cell number change was -34.6%. Moreover, the AC50 under setting [2] was 4.61 µM [falling, full curve]. In addition, the AC50 under setting [1] was 1.3 µM [falling, full curve].
On to `CC(=O)c1ccccc1NC(=O)c1cc(S(=O)(=O)N2CCOCC2)ccc1N1CCCC1`, for which the cell number change stood at 14.7%. Further, the AC50 under setting [1] is 14.6 µM [rising, partial curve].
Take `Oc1ccccc1CN1CCN(C(c2ccccc2)c2ccccc2)CC1`: the cell number change came out at 27.2%. Further, the AC50 under setting [1] was 20.6 µM [rising, partial curve].
As to `CC(=O)COc1ccc2c3c(c(=O)oc2c1C)CCCCC3`, the cell number change is -7.73%. Moreover, the AC50 under setting [1] is 29.1 µM [rising, single point].
Take `O=C(NCCC1CCCCN1S(=O)(=O)c1ccccc1)C(=O)NC1CC1` (stereo unspecified): the cell number change was -25.1%. Besides, the AC50 under setting [1] is 0.0651 µM [falling, full curve, poor fit].
For the compound `COc1ccccc1C(=O)N/N=C(\C)CC(=O)Nc1ccc2c(c1)OCCO2`, the AC50 under setting [1] was 35.5 µM [falling, single point].
Consider `Cc1ccc(C)c(N2CCN(C(c3ccncc3)c3nnnn3Cc3ccccc3)CC2)c1` (stereo unspecified), for which the cell number change was found to be 23.5%. In addition, the AC50 under setting [1] is 29.1 µM [falling, single point].
For the compound `O=C(O)c1ccccc1NS(=O)(=O)c1cccc(C(F)(F)F)c1`, the cell number change was -2.51%. The AC50 under setting [1] is 0.651 µM [falling, single point].
For the compound `CCOc1ccc(OCCCC(=O)N(C)CC(=O)Nc2ccc(N3CCOCC3)cc2)cc1`, the cell number change worked out at 2.01%.
Take `Cc1ccc(S(=O)(=O)NCCCC(=O)N2CCC(C)CC2)cc1`: the AC50 under setting [1] was 9.2 µM [falling, partial curve].
Consider `O=C(CSc1ccc(S(=O)(=O)N2CCOCC2)cn1)Nc1ccc(OC(F)F)cc1`, for which the cell number change came to 33.4%. In addition, the AC50 under setting [2] was 29.1 µM [rising, single point]. Further, under setting [1], the AC50 is 4.61 µM [rising, partial curve].
Take `CCCCn1c(CCn2nc(C)c(Br)c2C)n[nH]c1=S`: the cell number change is 41.9%. The AC50 under setting [2] is 2.06 µM [rising, partial curve]. Moreover, the concentration at half-maximal activity (AC50) under setting [1] was 0.461 µM [rising, single point].
Turning to `C#CCNc1c2c(nc3ncnn13)CC(C)CC2` (stereo unspecified), the cell number change is -8.42%. The AC50 under setting [1] was 4.61 µM [rising, partial curve, poor fit].
With `CC(=O)Nc1ccc(-c2csc(Nc3cc(C)ccn3)n2)cc1`, the cell number change is -38.1%. The AC50 under setting [2] is 29.1 µM [falling, partial curve, poor fit]. Under setting [1], the AC50 was 32.6 µM [falling, partial curve].
Turning to `Cc1[nH]c(=O)[nH]c(=O)c1N1CCOCC1`, the cell number change was -23%. For the same compound, under setting [1], the AC50 was 0.164 µM [falling, full curve].
With `CCc1cccc(NC(=O)C2CCCN(c3ncnc4c3nc3n4CCCCC3)C2)c1` (stereo unspecified), the cell number change worked out at 7.63%.
On to `O=C(Nc1ccccc1C(=O)NCCN1CCOCC1)c1ccco1`, for which the AC50 under setting [2] was 6.51 µM [rising, single point].
Regarding `COCCn1c(=NC(=O)c2ccc(S(=O)(=O)N3CCCc4ccccc43)cc2)sc2cc(S(C)(=O)=O)ccc21`, the cell number change worked out at 4.74%. Besides, the AC50 under setting [1] is 3.26 µM [rising, single point].
As for `Cc1cc(C(=O)Nc2ccc(Br)cc2)c2ccccc2n1`, the cell number change was -2.19%. Besides, the AC50 under setting [1] was 0.116 µM [rising, full curve, poor fit].
On to `C=CCn1c(O)c(C2=c3ccccc3=NC2=O)sc1=Nc1ccc(O)cc1`, for which the cell number change was -69%. Besides, the AC50 under setting [2] was 25.9 µM [falling, partial curve]. Under setting [1], the AC50 is 18.4 µM [falling, single point].
